Assay results: the supplement of paper PMC10398353
Where “and” joins values, the source holds several entries; their conditions need not be identical. Equal values may be shown once. Where a name gives a salt, the structure may show the parent alone. ± gives the standard deviation of the averaged measurements. The list shows a part of the results. This is a noisy data set.

What follows are compounds tested on Salmonella enterica serovar Typhimurium ST313 D23580 (assay: normalized bacterial growth (OD600 20 h minus 0 h, interquartile-mean normalized) (fraction of plate interquartile mean); higher = more bacterial growth (less inhibition)). Conditions: LPM (pH 5.8, low phosphate, low Mg2+), concentration: 10 µM, temperature: 37 °C.

| SMILES | normalized bacterial growth |
| --- | --- |
| COc1cc(C(=O)NCc2ccc(OCCN(C)C)cc2)cc(OC)c1OC | 0.879 |
| Cc1ccc(S(=O)(=O)N[C@@H](Cc2ccccc2)C(=O)CCl)cc1 [N-p-Tosyl-L-phenylalanine chloromethyl ketone] | 1.14 |
| NC1CCN(c2cccc(Cl)n2)CC1 | 0.98 |
| NC(=NCCC[C@H](N)C(=O)O)NO [NG-Hydroxy-L-arginine acetate] | 1.03 |
| C[C@@H]1CC[C@H]2[C@](C)(CO)[C@@H](O)CC[C@]2(C)[C@@]12CC[C@@](CO)(CCO)O2 | 0.964 and 0.927 |
| Cn1c(=O)[nH]c2ncn(C)c2c1=O ["1,7-Dimethylxanthine"] | 1.28 |
| C1COC(NC(C2CC2)C2CC2)=N1 [Rilmenidine hemifumarate] | 0.919 |
| Cc1cc(C(C)(C)C)c(O)c(C(C)(C)C)c1 | 0.959 |
| COc1ccc2c(c1)OCC(Cc1ccc(OC)c(O)c1)C2=O (centres undefined) | 0.531 |
| O=C(O)c1cn(C2CC2)c2cc(N3CCNCC3)c(F)cc2c1=O | 0.0226 |
| O=C(O)c1cn(C2CC2)c2cc(N3CCNCC3)c(F)cc2c1=O [Ciprofloxacin hydrochloride] | 0.0699 |
| CCCn1c(=O)[nH]c(=O)c2[nH]cnc21 [3-n-Propylxanthine] | 1.09 |
| COc1ccc(/C=C/C(=O)c2ccc(O)cc2O)cc1 | 1.07 |
| OC[C@H]1O[C@@H](n2cnc3c(NC4CCCC4)ncnc32)[C@H](O)[C@@H]1O [N6-Cyclopentyladenosine] | 1.42 |
| C[N+](C)(C)CC=O [Betaine aldehyde chloride] | 1.16 |
| Cc1nn(-c2ccccc2)c(C)c1C=NN1CCN(Cc2ccccc2)CC1 | 0.629 |
| CCCCCCCCCCCCCC[C@@H](O)[C@@H](O)[C@@H](N)CO | 1.62 |
| COc1c(CC(=O)c2cc3c(cc2O)OC(C)(C)C(O)C3)ccc2c1C=CC(C)(C)O2 (centres undefined) | 0.814 |
| Fc1ccc(CN(C2=NCCN2)c2c(Cl)cccc2Cl)cc1 [IMID-4F hydrochloride] | 1.14 |
| Clc1ccc(C(Cn2ccnc2)OCc2ccsc2Cl)c(Cl)c1 (centres undefined) | 0.617 |
| O=C(O)CNC(=O)C(CS)Cc1ccccc1 (racemic) [DL-Thiorphan] | 1.13 |

| SMILES | normalized bacterial growth |
| --- | --- |
| CCCC1C(=O)N2C(N(C)C)=Nc3ccc(C)cc3N2C1=O (centres undefined) [Azapropazone] | 1.34 |
| c1cnc(N2CCN(Cc3ccc4c(c3)OCO4)CC2)nc1 [Piribedil maleate] | 1.21 |
| c1cnc(N2CCN(Cc3ccc4c(c3)OCO4)CC2)nc1 [Piribedil hydrochloride] | 1.14 |
| C[C@](N)(Cc1ccc(O)c(O)c1)C(=O)O [L-alpha-Methyl DOPA] | 0.954 |
| C=CC(C1=CC(=O)C(OC)=CC1=O)c1ccccc1 (centres undefined) | 0.71 |
| C[C@H]1c2cccc(O)c2C(=O)C2=C(O)[C@]3(O)C(=O)C(C(N)=O)=C(O)[C@@H](N(C)C)[C@@H]3[C@@H](O)[C@@H]21 [Doxycycline hyclate] | 0.0156 |
| C[C@H]1c2cccc(O)c2C(=O)C2=C(O)[C@]3(O)C(=O)C(C(N)=O)=C(O)[C@@H](N(C)C)[C@@H]3[C@@H](O)[C@@H]21 [Doxycycline hydrochloride] | 0.26 |
| C[C@H]1[C@H](C)CC[C@]2(C(=O)O[C@@H]3O[C@H](CO[C@@H]4O[C@H](CO)[C@@H](O[C@@H]5O[C@H](C)[C@H](O)[C@@H](O)[C@H]5O)[C@H](O)[C@H]4O)[C@@H](O)[C@H](O)[C@H]3O)CC[C@]3(C)C(=CC[C@@H]4[C@@]5(C)C[C@@H](O)[C@H](O)[C@@](C)(CO)[C@@H]5CC[C@]43C)[C@H]12 [Asiaticoside] | 1.3 |
| Cc1c(O)c(=O)n(-c2ccccc2)n1C ["Antipyrine, 4-hydroxy"] | 0.876 |
| CC=CC1=C(C(=O)O)N2C(=O)[C@@H](NC(=O)[C@H](N)c3ccc(O)cc3)[C@H]2SC1 | 1.1 |
| COC(=O)c1c(C)cc(OC)cc1O | 1.17 |
| NC(=O)CC[C@H](N)C(=O)O [L-Glutamine] | 1.15 |
| O=C1c2ccccc2C(=O)C1c1ccc(Br)cc1 | 1.29 |
| Cc1cc2c(s1)Nc1ccccc1N=C2N1CCN(C)CC1 | 1.46 |
| CC1(C)C(O[C@@H]2OC[C@@H](O)[C@H](O)[C@H]2O)CC[C@]23CC24CC[C@]2(C)[C@@H]([C@@]5(C)CC[C@@H](C(C)(C)O)O5)[C@H](O)C[C@@]2(C)C4C[C@@H](O[C@@H]2O[C@H](CO)[C@@H](O)[C@H](O)[C@H]2O)C13 (some centres undefined) | 1.21 |
| Oc1cccc(O)c1 | 0.783 |
| CC(=O)N(c1onc(C)c1C)S(=O)(=O)c1ccc(N)cc1 | 0.981 |
| Cc1cc(O)cc(C)c1Cl | 0.782 |
| C=C1CCC(C2CC(=O)OC2=O)C(=O)CCC2C1CC2(C)C (centres undefined) | 1.22 |
| O=C(O)c1cc(=O)c2c(Cl)cc(Cl)cc2[nH]1 ["5,7-Dichlorokynurenic acid"] | 0.976 |
| O=Nc1ccc2oc(=O)ccc2c1 ["6-Nitroso-1,2-benzopyrone"] | 1.01 |

| SMILES | normalized bacterial growth |
| --- | --- |
| CC(C)(C)c1ccc(S(=O)(=O)/C=C/C#N)cc1 | 0.717 |
| CC(N)CCCC(C)(C)O (centres undefined) | 0.992 |
| CN1CCCN=C1/C=C/c1cccc(O)c1 [Oxantel pamoate] | 0.623 |
| CN1CCCN=C1/C=C/c1cccc(O)c1 | 0.859 |
| O=C(O)c1cc2cc(Cc3cccnc3)ccc2o1 [Furegrelate sodium] | 1.06 |
| CC(=O)O[C@@H]1C=C[C@]2(C)C(C[C@@H](OC(C)=O)[C@]3(C)C4=CC(=O)O[C@H](c5ccoc5)[C@@]4(C)CCC23)C1(C)C (some centres undefined) | 0.448 |
| CC1CCN=C(N)S1 (centres undefined) [()-AMT hydrochloride] | 0.851 |
| N#C/C(=C\c1ccc(O)c(O)c1)C(=O)NCCCc1ccccc1 [Tyrphostin AG 555] | 1.23 |
| C/C(=C\C(=O)OCCCCCCCCC(=O)O)C[C@@H]1OC[C@H](C[C@@H]2O[C@H]2[C@@H](C)[C@H](C)O)[C@@H](O)[C@H]1O | 0.0812 |
| O=C(O)c1cc(N(Cc2ccccc2O)Cc2cc(O)ccc2O)ccc1O | 1.19 |
| N[C@@H](CSCSC[C@H](N)C(=O)O)C(=O)O | 1.16 |
| c1ccc(C2CN3CCSC3=N2)cc1 (single isomer, unassigned; (-)) [(-)-Tetramisole hydrochloride] | 1.2 |
| CN/C(=N\CCSCc1nc[nH]c1C)NC#N | 1.26 |
| CN/C(=N\CCSCc1nc[nH]c1C)NC#N [Cimetidine] | 0.98 ± 0.12 |
| CCc1cccc(CC)c1NC(=O)CN(CC(=O)O)CC(=O)O [Etifenin] | 1.18 |
| COc1cc2ncnc(Nc3cccc(Cl)c3)c2cc1OC [Tyrphostin AG 1478] | 0.921 |
| CC(=O)Oc1cc(-c2coc3cc(OC(C)=O)c(OC(C)=O)c(OC(C)=O)c3c2=O)cc(OC(C)=O)c1OC(C)=O | 0.773 |
| Nc1ncnc2c1ncn2C1OC(COP(=O)(O)O)C(O)C1O (centres undefined) [Adenosine 5'-monophosphate monohydrate] | 1.28 |
| CCOC(=O)c1cnc2c(cnn2CC)c1NN=C(C)C [Etazolate hydrochloride] | 0.963 |
| CN1CCCN(C(c2ccccc2)c2ccc(Cl)cc2)CC1 (centres undefined) [Homochlorcyclizine dihydrochloride] | 0.939 |
| C[C@@H]1C[C@H]2[C@@H]3CCC4=CC(=O)C=C[C@]4(C)[C@@]3(Cl)[C@@H](O)C[C@]2(C)[C@@]1(OC(=O)c1ccco1)C(=O)CCl [Mometasone furoate] | 0.862 |

A different layout for part of the listing above:
SMILES	normalized bacterial growth
Nc1ncnc2c1ncn2C1OC(COP(=O)(O)O)C(O)C1O (centres undefined) [Adenosine 5'-monophosphate monohydrate]	1.28
CCOC(=O)c1cnc2c(cnn2CC)c1NN=C(C)C [Etazolate hydrochloride]	0.963
CN1CCCN(C(c2ccccc2)c2ccc(Cl)cc2)CC1 (centres undefined) [Homochlorcyclizine dihydrochloride]	0.939
C[C@@H]1C[C@H]2[C@@H]3CCC4=CC(=O)C=C[C@]4(C)[C@@]3(Cl)[C@@H](O)C[C@]2(C)[C@@]1(OC(=O)c1ccco1)C(=O)CCl [Mometasone furoate]	0.862

The listing continues.

| SMILES | normalized bacterial growth |
| --- | --- |
| c1coc(CNc2ncnc3[nH]cnc23)c1 | 1.05 ± 0.18 |
| CCOc1ccc2nc(S(N)(=O)=O)sc2c1 | 1.11 |
| Oc1ccc(-c2nc(-c3ccc(F)cc3)c(-c3ccncc3)[nH]2)cc1 | 0.941 |
| COc1ccc([C@@H](C)C(=O)c2ccc(O)cc2O)cc1 | 1.15 |
| CC1(C)S[C@@H]2[C@H](NC(=O)[C@H](N)c3ccccc3)C(=O)N2[C@H]1C(=O)O | 1.05 |
| CC1(C)S[C@@H]2[C@H](NC(=O)[C@H](N)c3ccccc3)C(=O)N2[C@H]1C(=O)O [Ampicillin trihydrate] | 0.974 |
| C=C[C@H]1CN2CC[C@H]1C[C@H]2[C@H](O)c1ccnc2ccc(OC)cc12 [Quinine sulfate] | 1.34 |
| C=C[C@H]1CN2CC[C@H]1C[C@H]2[C@H](O)c1ccnc2ccc(OC)cc12 | 0.894 and 0.957 |
| O=C(/C=C/c1ccccc1)c1ccc(O[C@@H]2O[C@H](CO)[C@@H](O)[C@H](O)[C@H]2O)cc1O | 1.1 |
| O=c1n(CCCN2CCN(c3cccc(Cl)c3)CC2)nc2ccccn12 [Trazodone hydrochloride] | 0.706 |
| CC1/C(=N/O)C[C@@H]2C[C@H]1C2(C)C (some centres undefined) | 0.985 |
| COc1ccc2cc([C@H](C)C(=O)O)ccc2c1 [(-)-Naproxen sodium] | 0.978 |
| COc1ccc2cc([C@H](C)C(=O)O)ccc2c1 [Naproxen] | 1.22 |
| Nc1cc(N2CCCCC2)nc(N)[n+]1[O-] [Minoxidil] | 1.17 ± 0.033 |
| C[C@@]12C=Cc3occc3[C@H]1CC[C@@]13C[C@@H](CC[C@H]12)[C@@](O)(CO)C3 | 0.989 |
| Nc1ncnc2c1ncn2[C@@H]1O[C@H](COP(=O)(O)OP(=O)(O)OP(=O)(O)OP(=O)(O)OC[C@@H]2O[C@H](n3cnc4c(N)ncnc43)C(O)[C@@H]2O)[C@H](O)C1O (some centres undefined) ["P1,P4-Di(adenosine-5')tetraphosphate triammonium"] | 0.934 |
| CC1=C(/C=C/C(C)=C/C=C/C(C)=C/CO)C(C)(C)CCC1 | 0.94 |
| COc1ccccc1N1CCN(CCN(C(=O)c2ccc(I)cc2)c2ccccn2)CC1 [p-MPPI hydrochloride] | 0.738 |
| O=C(O)c1ccccc1OP(=O)(O)O | 1.27 |
| COC(=O)c1c(C)cc(OC(=O)c2c(C)cc(O)c(C=O)c2O)c(C)c1O | 0.915 |
| OC1(c2ccc(Cl)cc2)CCN(Cc2c[nH]c3ccccc23)CC1 | 0.841 |
